Patent publication US8642297B2, “Production of L-ribose and other rare sugars” (ZuChem, Inc., priority 2005, dated 2014)

Format: biochemical, Apium graveolens
Method: Many different variables were studied to maximize the expression and activity of MDH. MDH activity was monitored with the conversion of D-mannitol to D-mannose in the presence of NAD. The conversion was monitored spectrophotometrically by measuring the increasing concentration of NADH, the cofactor product of the oxidation of mannitol to mannose. For a given experiment, lysate protein concentrations were normalized.
The pH profile for MDH for the oxidation reactions was also tested. […] This range could be beneficial for in vitro bioconversions with enzymatic NAD cofactor recycling methods. Increasing the activity of MDH at neutral pH could improve in vivo fermentation activity as the interior of the E. coli cell has a pH lower than 9.0.[21]
The recombinant MDH was tested for activity at various temperatures. Lysates containing expressed MDH were incubated with D-mannitol and NAD at pH 9.0. Activity was measured by measuring the increased NADH concentration spectrophotometrically at A340nm. […] See, FIG. 12.
The thermostability of recombinant MDH was also tested. Lysates containing MDH were incubated at various temperatures. Aliquots of MDH were removed at various times to measure MDH activity using the assay described above. See, FIG. 13.

MDH: NAD-dependent mannitol-1-dehydrogenase from Apium graveolens, recombinantly expressed in E. coli
Temperature of maximal activity (lysates, D-mannitol and NAD at pH 9.0): approximately 39 °C | pH of highest activity (oxidation reactions): 9.0
